Laboratory results from publication doi:10.1101/2021.06.29.450327.
These are yes or no findings as the source states them, for the method shown. In cells and extracts the contact can be indirect. Some results given as binding are weak or reduced against the parent protein; the word gives no strength.

Sequences of proteins named here, by UniProt entry; tags and fusion partners are left off. Residues count along the entry.
UniProt P58022, residues 26-776: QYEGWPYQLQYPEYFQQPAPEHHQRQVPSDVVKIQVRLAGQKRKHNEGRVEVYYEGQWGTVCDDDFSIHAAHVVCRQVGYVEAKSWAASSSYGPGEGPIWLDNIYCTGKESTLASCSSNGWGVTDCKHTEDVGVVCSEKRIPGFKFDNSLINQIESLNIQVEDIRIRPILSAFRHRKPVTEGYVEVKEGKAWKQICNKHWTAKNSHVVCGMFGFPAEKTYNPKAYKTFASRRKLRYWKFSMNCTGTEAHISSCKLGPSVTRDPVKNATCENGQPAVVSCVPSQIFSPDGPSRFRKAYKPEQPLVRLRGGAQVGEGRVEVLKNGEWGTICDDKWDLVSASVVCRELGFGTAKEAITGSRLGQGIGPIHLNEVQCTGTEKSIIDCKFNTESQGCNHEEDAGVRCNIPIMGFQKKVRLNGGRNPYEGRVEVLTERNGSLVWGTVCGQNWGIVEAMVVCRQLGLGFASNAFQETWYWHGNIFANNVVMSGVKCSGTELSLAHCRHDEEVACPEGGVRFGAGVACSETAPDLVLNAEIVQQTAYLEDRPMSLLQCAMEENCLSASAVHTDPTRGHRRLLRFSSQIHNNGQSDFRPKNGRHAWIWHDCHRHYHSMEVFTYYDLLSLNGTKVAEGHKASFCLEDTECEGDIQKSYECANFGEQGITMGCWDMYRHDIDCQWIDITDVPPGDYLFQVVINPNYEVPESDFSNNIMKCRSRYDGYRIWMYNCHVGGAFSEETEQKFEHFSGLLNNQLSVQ
UniProt Q9Y4K0, residues 26-774: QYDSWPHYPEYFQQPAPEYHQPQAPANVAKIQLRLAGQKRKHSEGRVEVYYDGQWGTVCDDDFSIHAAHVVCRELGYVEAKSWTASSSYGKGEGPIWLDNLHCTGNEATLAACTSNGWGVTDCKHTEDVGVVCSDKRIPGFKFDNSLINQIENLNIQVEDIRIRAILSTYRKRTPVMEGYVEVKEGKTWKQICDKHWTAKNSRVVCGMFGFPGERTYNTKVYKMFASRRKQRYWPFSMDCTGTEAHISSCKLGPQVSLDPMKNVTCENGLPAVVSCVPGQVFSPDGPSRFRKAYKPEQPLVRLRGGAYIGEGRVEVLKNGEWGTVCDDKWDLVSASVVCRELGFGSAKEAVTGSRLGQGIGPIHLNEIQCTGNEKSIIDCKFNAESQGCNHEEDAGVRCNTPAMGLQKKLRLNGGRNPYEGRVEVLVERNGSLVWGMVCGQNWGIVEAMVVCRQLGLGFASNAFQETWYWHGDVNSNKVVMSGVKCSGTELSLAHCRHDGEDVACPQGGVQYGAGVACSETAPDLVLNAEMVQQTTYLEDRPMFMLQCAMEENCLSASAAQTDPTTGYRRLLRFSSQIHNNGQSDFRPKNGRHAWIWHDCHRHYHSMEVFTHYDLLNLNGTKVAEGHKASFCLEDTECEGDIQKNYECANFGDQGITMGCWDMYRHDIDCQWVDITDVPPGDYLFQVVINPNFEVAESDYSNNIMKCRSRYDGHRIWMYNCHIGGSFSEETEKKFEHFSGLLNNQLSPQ

Key:
[1] = target: Meflin (IP assay with Loxl2, Supplementary Fig. 6d) (UniProt Q6GU68); test: co-IP
[2] = target: T1, endogenous Meflin (human fibroblasts) (human (endogenous in fHDF/TERT166 and NHDF fibroblasts)) (UniProt O14498); test: co-IP
T1 sequence: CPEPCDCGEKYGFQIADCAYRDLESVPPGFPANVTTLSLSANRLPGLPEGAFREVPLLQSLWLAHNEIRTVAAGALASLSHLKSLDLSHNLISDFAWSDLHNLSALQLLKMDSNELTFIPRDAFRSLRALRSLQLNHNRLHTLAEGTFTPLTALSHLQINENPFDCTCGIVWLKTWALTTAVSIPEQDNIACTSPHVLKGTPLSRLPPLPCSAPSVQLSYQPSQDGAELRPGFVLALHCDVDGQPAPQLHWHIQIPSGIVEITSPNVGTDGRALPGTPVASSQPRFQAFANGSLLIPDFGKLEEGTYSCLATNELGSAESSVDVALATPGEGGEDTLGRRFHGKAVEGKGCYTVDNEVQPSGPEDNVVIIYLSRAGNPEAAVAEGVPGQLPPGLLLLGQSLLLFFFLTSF

Substance | binding [1] | binding [2]
lysyl oxidase like 2 (Loxl2) (from UniProt P58022 26-776) (enzyme) | binds | –
endogenous Loxl2 (from UniProt Q9Y4K0 26-774) (enzyme) | – | binds
